Laboratory results taken from paper PMC11023358.

Chains of the proteins cited; added tags and fusions are not shown.
UniProt O88271: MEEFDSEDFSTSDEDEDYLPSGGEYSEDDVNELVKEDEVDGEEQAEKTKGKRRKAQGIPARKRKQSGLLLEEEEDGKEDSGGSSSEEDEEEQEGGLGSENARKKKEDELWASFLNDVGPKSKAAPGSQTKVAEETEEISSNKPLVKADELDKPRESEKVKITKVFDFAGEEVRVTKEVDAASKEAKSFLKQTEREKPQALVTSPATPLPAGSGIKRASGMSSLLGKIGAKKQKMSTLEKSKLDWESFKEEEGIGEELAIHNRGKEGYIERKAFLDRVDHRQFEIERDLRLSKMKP

Target: 3XFLAG-tagged full-length CFDP1 stably expressed in NIH3T3 cells (mouse) (UniProt O88271)
Assay: affinity purification with mass spectrometry; MS analysis of proteins interacting with 3XFLAG-tagged CFDP1 in NIH3T3 cells

binding: binds
B1: RCC1 (regulator of chromatin condensation I protein), endogenous in NIH3T3 cells (protein, UniProt Q8VE37 1-421)
chain: MPPKRIAKRRSPPEDAIPKSKKVKVSHRSHNTEPGLVLTLGQGDVGQLGLGESVLERKKPALVPLLQDVVQAEAGGMHTVCLSQSGQVYSFGCNDEGALGRDTSVEGSEMVPGKVELQEKVVQVSAGDSHTAALTEDGRVFLWGSFRDNNGVIGLLEPMKKSMVPVQVQLDAPVVKVASGNDHLVMLTNDGDLYTLGCGEQGQLGRVPELFANRGGRQGLGRLLVPRCVLLKSRGTRGRVRFQDAFCGAYFTFAISREGHVYGFGLSNYHQLGTPGTGSCFIPQNLTSFKNSTKSWVGFSGGQHHTVCMDSEGKAYSLGRAEYGRLGLGEGAEEKSIPTLISRLPVVSSVACGASVGYAVSKDGRVFAWGMGTNYQLGTGQDEDAWSPVEMTGKQLENRVVLTVSSGGQHTVLLVKDQAQS

No constants are given. Whether binding was seen depends on the method and setting. In cells and extracts the contact can be indirect. A yes stands for co-enrichment or nearness to the bait. Other partners may have been found.
